These are yes or no findings as the source states them, for the method shown. Some binding calls cover weakened binding; strength is not graded here.

Protein sequences, listed by entry. Tags and fused reporters are not part of them.
UniProt P63081: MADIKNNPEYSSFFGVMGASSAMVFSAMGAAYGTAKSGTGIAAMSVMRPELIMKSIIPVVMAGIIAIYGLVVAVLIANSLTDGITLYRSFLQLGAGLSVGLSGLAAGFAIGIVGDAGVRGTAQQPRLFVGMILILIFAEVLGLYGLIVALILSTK

Results on one molecule are retold here after paper PMC10001230, “A Role for the V0 Sector of the V-ATPase in Neuroexocytosis: Exogenous V0d Blocks Complexin and SNARE Interactions with V0c” (Cells, 2023).

The target in this assay is His6-T7-HSV tagged full-length V0c-subunit (rat) (UniProt P63081). Description: SPR; HSV-V0c captured on anti-HSV antibodies (CMDP chip); solubilized rat brain LP1 proteins diluted 5-fold in 25 mM Tris-HCl pH 7.4, 150 mM NaCl, 0.2% CHAPS injected; bound proteins detected by injecting monoclonal antibodies; control flow cell subtracted; only the target purified. In general terms: SPR reads the build-up and loss of mass on a sensor chip optically.

B1: complexin 2 (native, rat brain extract) (protein, UniProt P84087 1-134)
chain: MDFVMKQALGGATKDMGKMLGGEEEKDPDAQKKEEERQEALRQQEEERKAKHARMEAEREKVRQQIRDKYGLKKKEEKEAEEKAALEQPCEGSLTRPKKAIPAGCGDEEEEEEESILDTVLKYLPGPLQDMFKK
B1: the binding result is “binds”.
